Values joined by “and” are separate entries in the source; they are usually repeats but may differ in a detail not shown here. Equal values may be shown once. Inconclusive results, whose numbers are uncertain, are shown with a selection of clear calls. For some assays here: A potency beside an inconclusive call is a rough fit, not a confirmed value. Active and inactive are the calls of the source. How the source made its calls: active means hit-call score of the fitted dose curve at least 0.9, where 1 is the maximum; inconclusive means response in the unintended direction; inactive means score below 0.9.
Key:
[1] = biological target: rat Androgen Receptor (AR), Ar (gene 24208) (UniProt P15207); experiment: NVS_NR_rAR: NovaScreen (NVS) Nuclear Receptor Binding Assay for rat Androgen Receptor (AR) (AID 2283366)
Procedure, shortened: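 Cell-free radioligand binding on extracts of prostate from testosterone-pretreated rats, read by filter-based scintillation counting 18 h after dosing. Loss of bound signal fitted positively versus DMSO; primary screen in duplicate at 25 uM, actives followed up in concentration series.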

Protein sequences, listed by entry. Tags and fused reporters are not part of them. Lines headed by an entry give the natural chain unless they say otherwise; changes in a name come on top.
UniProt P15207: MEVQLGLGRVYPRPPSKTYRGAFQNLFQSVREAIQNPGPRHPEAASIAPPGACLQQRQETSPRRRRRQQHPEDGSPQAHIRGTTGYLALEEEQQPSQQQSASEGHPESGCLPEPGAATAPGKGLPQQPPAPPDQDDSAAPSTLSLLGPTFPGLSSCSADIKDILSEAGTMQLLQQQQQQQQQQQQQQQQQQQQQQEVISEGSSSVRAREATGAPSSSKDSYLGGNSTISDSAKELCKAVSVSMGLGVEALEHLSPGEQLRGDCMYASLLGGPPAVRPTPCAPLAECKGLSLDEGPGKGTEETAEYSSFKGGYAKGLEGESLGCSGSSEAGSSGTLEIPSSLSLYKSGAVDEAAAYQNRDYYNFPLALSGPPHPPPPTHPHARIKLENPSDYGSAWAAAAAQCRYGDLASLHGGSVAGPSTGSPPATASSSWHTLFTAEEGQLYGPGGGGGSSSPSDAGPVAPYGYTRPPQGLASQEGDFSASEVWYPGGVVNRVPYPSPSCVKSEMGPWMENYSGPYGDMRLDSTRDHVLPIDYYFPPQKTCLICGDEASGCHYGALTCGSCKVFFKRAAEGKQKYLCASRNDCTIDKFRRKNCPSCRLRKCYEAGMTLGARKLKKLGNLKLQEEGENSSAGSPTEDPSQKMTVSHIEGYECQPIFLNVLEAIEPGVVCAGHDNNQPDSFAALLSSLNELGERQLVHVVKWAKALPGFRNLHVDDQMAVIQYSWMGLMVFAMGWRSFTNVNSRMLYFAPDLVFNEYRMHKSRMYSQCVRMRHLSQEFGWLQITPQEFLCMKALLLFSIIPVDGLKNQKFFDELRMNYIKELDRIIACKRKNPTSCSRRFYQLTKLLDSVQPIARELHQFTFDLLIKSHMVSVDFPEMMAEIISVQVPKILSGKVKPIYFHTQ
UniProt P28827, whole entry, looked up: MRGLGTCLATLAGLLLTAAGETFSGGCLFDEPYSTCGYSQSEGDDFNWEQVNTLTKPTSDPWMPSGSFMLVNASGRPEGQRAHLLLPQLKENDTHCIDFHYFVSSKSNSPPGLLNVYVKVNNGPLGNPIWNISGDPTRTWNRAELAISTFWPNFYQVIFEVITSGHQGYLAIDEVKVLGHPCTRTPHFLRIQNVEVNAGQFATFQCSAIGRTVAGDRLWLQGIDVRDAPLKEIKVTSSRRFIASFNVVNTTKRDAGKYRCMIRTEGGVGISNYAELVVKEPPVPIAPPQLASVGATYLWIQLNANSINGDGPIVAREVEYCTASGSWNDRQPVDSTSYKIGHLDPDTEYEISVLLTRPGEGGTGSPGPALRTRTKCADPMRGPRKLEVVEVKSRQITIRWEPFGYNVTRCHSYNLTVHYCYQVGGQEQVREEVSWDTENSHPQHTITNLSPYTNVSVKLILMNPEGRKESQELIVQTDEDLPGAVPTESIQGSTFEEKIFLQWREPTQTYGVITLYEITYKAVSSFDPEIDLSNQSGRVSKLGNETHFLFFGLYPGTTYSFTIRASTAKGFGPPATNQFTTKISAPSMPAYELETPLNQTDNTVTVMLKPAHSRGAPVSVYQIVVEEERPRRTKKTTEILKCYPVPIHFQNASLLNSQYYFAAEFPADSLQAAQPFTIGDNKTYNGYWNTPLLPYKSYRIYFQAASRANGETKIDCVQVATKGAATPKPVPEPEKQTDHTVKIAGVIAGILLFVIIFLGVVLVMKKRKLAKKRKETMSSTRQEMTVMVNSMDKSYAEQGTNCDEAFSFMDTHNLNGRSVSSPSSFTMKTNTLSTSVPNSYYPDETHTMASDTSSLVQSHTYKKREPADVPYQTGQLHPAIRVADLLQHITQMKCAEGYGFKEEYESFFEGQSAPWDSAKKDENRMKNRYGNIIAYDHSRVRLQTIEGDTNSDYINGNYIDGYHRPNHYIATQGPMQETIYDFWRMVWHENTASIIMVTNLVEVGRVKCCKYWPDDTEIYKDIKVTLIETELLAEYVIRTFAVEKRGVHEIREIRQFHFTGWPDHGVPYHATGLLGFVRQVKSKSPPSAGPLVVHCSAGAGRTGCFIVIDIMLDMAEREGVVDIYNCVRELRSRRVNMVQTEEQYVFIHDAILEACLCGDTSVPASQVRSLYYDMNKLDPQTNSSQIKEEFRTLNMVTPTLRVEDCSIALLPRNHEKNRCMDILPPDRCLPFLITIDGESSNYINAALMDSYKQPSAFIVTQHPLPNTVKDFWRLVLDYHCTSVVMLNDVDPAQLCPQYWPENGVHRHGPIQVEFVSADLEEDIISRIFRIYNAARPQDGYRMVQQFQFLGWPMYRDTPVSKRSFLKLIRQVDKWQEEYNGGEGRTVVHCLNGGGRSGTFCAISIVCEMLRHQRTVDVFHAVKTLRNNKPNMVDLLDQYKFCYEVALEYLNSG
UniProt Q14994: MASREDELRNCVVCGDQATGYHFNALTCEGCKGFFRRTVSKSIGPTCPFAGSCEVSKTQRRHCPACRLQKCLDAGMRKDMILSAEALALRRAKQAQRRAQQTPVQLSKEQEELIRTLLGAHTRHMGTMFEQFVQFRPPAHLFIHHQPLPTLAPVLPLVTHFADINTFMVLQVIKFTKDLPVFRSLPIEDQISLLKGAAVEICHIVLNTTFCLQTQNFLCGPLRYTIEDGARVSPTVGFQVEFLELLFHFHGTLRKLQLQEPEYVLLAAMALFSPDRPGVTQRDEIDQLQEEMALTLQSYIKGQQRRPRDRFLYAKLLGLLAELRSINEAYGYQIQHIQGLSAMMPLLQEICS
UniProt P08246: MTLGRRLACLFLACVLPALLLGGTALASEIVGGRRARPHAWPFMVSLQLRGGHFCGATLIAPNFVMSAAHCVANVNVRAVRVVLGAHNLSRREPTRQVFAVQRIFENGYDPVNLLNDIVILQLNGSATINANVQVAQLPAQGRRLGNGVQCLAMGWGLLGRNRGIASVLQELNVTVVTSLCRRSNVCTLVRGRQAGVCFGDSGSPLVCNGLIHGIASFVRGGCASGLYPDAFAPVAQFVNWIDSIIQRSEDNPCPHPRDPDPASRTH
UniProt P67775, whole entry, looked up: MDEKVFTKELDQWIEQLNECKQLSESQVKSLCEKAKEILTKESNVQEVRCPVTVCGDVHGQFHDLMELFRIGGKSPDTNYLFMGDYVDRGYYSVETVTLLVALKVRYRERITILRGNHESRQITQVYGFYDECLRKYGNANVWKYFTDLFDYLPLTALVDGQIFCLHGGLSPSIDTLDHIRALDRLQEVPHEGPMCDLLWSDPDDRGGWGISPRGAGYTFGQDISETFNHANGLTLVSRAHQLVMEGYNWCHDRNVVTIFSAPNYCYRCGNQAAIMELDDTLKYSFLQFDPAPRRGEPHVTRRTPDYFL
UniProt P04799: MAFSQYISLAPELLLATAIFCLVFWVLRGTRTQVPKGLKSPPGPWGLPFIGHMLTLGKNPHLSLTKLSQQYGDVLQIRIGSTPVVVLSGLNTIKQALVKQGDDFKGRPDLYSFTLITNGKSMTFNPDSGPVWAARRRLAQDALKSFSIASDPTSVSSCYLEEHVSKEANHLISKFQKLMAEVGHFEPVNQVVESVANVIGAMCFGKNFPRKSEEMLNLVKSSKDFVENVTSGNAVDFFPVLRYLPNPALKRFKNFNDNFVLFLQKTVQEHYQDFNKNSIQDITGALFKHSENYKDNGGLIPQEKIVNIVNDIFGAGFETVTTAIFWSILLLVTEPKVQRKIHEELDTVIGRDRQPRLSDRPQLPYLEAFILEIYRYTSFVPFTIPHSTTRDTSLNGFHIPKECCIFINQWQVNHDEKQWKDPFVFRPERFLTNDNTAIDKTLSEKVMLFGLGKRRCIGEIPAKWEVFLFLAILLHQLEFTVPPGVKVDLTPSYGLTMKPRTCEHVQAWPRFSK
UniProt P10634: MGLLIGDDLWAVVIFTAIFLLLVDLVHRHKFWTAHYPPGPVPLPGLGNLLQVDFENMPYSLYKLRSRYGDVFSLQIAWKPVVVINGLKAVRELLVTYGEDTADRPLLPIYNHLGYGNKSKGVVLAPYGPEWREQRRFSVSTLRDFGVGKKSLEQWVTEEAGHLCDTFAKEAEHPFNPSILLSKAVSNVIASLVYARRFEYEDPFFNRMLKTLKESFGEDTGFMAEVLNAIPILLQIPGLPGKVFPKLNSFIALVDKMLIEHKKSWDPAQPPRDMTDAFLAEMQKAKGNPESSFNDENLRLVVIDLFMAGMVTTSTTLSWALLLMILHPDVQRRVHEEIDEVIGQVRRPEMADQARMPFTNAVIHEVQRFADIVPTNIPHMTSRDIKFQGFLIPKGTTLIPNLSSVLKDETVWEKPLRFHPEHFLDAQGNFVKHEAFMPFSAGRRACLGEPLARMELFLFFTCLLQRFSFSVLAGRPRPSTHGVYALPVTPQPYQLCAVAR
UniProt P19643, whole entry, looked up: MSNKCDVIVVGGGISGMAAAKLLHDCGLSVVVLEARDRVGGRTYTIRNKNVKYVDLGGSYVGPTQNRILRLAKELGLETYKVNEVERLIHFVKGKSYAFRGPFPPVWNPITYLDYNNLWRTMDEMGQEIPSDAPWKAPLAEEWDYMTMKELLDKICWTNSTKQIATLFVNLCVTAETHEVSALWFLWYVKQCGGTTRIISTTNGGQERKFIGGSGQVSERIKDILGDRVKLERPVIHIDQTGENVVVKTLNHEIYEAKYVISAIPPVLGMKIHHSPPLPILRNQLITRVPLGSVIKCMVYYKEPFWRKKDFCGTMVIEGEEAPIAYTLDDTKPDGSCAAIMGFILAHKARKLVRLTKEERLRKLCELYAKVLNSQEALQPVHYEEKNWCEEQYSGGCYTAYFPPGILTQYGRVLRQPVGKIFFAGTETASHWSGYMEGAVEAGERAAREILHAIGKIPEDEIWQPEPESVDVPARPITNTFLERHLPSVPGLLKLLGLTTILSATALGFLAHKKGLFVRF
UniProt P56481: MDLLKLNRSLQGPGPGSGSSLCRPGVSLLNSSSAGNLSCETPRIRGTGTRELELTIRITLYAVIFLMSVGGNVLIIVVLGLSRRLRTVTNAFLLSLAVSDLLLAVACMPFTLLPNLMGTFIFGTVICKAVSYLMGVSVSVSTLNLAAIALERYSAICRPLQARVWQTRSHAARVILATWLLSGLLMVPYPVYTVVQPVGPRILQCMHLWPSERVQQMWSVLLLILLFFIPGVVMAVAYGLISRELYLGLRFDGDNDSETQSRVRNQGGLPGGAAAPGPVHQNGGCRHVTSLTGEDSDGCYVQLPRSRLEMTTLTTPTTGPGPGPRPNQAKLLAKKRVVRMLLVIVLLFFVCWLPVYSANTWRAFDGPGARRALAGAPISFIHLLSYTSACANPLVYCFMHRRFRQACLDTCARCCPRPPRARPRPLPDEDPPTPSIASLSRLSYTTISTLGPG
UniProt P03372, whole entry, looked up: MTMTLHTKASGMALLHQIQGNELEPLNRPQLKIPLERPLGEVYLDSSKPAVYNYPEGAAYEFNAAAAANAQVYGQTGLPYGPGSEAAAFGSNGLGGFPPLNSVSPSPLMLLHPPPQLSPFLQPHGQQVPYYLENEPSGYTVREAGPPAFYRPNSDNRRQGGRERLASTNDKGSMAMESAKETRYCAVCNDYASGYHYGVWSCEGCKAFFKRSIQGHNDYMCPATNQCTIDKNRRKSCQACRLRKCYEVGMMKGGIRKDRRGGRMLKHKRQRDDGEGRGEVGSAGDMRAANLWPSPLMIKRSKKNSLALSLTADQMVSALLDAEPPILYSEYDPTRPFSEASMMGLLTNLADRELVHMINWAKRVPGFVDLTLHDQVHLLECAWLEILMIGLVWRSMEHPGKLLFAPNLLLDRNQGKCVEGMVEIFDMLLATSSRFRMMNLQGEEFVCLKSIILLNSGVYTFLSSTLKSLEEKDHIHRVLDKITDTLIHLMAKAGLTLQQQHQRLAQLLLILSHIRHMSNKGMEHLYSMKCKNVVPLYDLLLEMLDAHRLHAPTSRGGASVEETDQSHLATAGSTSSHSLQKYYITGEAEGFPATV
UniProt Q92731, whole entry, looked up: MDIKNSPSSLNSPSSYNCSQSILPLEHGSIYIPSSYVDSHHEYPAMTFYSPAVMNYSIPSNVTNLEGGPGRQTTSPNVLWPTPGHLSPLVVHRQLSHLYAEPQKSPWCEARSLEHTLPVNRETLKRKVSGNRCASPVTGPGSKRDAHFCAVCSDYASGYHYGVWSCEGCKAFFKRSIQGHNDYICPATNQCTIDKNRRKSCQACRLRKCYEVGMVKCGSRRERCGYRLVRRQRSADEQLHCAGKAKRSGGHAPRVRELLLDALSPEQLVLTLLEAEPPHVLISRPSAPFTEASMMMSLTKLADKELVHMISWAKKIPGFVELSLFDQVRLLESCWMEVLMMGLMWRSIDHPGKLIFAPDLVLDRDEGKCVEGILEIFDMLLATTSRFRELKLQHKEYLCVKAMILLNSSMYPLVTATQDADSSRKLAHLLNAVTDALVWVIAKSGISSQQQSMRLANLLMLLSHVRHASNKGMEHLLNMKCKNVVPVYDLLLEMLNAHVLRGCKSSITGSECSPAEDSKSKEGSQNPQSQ

[2] = CPHEA_Stoker_NIS_Cytotoxicity: Cytotoxicity Assessment for CPHEA's Radioactive Iodide Uptake (RAIU) Assay for Sodium/Iodide Symporter (NIS) Inhibition, Stoker and Laws Labs (AID 2283897);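 further: active means loss of ATP signal versus DMSO meaning cytotoxicity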
Procedure, shortened: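 CellTiter-Glo ATP luminescence gauged viability in HEK293T cells expressing human NIS after 2 h chemical exposure. Concentrations ran 0.001–100 uM in 0.5% DMSO; DMSO served as baseline for the loss-of-signal fit.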

[3] = biological target: human Protein Tyrosine Phosphatase Receptor Type M (PTPRM), PTPRM (gene 5797) (UniProt P28827); experiment: NVS_ENZ_hPTPRM: NovaScreen (NVS) Enzymatic Assay for human Protein Tyrosine Phosphatase Receptor Type M (PTPRM) (AID 2283215)
Procedure, shortened: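 Cell-free recombinant PTPRM with fluorogenic substrate; product separated from substrate by electrophoretic mobility shift and read by fluorescence, 1.33 h after dosing. Primary screen single concentration (25 uM) in duplicate; actives retested in concentration series; loss of signal versus DMSO.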

[4] = biological target: human Constitutive Androstane Receptor (CAR), NR1I3 (gene 9970) (UniProt Q14994); experiment: NVS_NR_hCAR_Agonist: NovaScreen (NVS) Nuclear Receptor Binding Assay for human Constitutive Androstane Receptor Agonism (CAR) (AID 2283328)
Procedure, shortened: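 Cell-free TR-FRET binding readout with extracted human CAR protein, read 1 h after dosing. Gain of signal fitted against DMSO baseline. Single-concentration duplicates at 25 uM, then concentration-response up to 50 uM for actives.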

[5] = biological target: human Elastase, ELANE (gene 1991) (UniProt P08246); experiment: NVS_ENZ_hElastase: NovaScreen (NVS) Enzymatic Assay for human Elastase (AID 2283153)
Procedure, shortened: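 Cell-free elastase from human neutrophils, 1.5 h after dosing, activity read by absorbance. Primary screen in duplicate at 25 uM; hits (e.g., 30% inhibition) rerun in singleton concentration-response up to 50 uM, fitted versus DMSO.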

PPP2CA (gene 5515) = PPP2CA (gene 5515) (UniProt P67775); experiment: NVS_ENZ_hPPP2CA: NovaScreen (NVS) Enzymatic Assay for human Protein Phosphatase 2 Aatalytic subunit Alpha (PPP2CA) (AID 2283199)
Procedure, shortened: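 Recombinant human PPP2CA with fluorescent substrate; product separated from substrate by electrophoretic mobility shift, read 1.33 h after dosing. Duplicate single-point at 25 uM, then singleton concentration-response up to 50 uM; loss of signal versus DMSO.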

[6] = test system: rat Monoamine Oxidase, MAO-A, Peripheral (MAOAP), gene 29253; experiment: NVS_ENZ_rMAOAP: NovaScreen (NVS) Enzymatic Assay for rat Monoamine Oxidase, MAO-A, Peripheral (MAOAP) (AID 2283237)
Procedure, shortened: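 Rat liver mitochondrial membranes served as the MAO-A source, with enzyme activity measured by radiometric scintillation counting 1.17 hours after dosing. Loss of signal was fitted against DMSO; primary screen used 25 uM in duplicate, follow-up used concentration series.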

[7] = biological target: rat CYP1A2, Cyp1a2 (gene 24297) (UniProt P04799); experiment: NVS_ADME_rCYP1A2: NovaScreen (NVS) CYP450-related Enzyme Activity (ADME) Assay for rat CYP1A2 (AID 2283115)
Procedure, shortened: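 Cell-free recombinant rat enzyme with fluorogenic substrate, read by fluorescence intensity 1 hour after dosing. Loss of signal versus acetonitrile negative control; primary screen at 10 uM in duplicate, actives followed in concentration series.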

[8] = biological target: rat CYP2D2, Cyp2d26 (gene 25053) (UniProt P10634); experiment: NVS_ADME_rCYP2D2: NovaScreen (NVS) CYP450-related Enzyme Activity (ADME) Assay for rat CYP2D2 (AID 2283124)
Procedure, shortened: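 Recombinant rat CYP2D2 in a cell-free fluorogenic activity assay, fluorescence read 0.75 h after dosing. Primary screen in duplicate at 10 uM; actives re-run singly in concentration-response to 20 uM, relative to acetonitrile.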

[9] = biological target: Type-1 angiotensin II receptor (Homo sapiens) (UniProt P30556); experiment: NVS_GPCR_hAT1: NovaScreen (NVS) G Protein-Coupled Receptor Assay for human Angiotensin II receptor type 1 (AT1) (AID 2283263)
Procedure, shortened: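 Membranes from KAN-TS cells; radioligand competitive displacement, 3 h, filtration and scintillation counting. Single-point duplicate screen at 25 uM, then concentration-response up to 50 uM for hits; loss of signal fitted versus DMSO.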

[10] = biological target: human Adenosine A2a Receptor (AdoRA2a), ADORA2A (gene 135) (UniProt P29274); experiment: NVS_GPCR_hAdoRA2a: NovaScreen (NVS) G Protein-Coupled Receptor Assay for human Adenosine A2a Receptor (AdoRA2a) (AID 2283256)
Procedure, shortened: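 Radioligand displacement on HEK293-derived membrane protein, cell-free; filter-based scintillation counting 1.5 hours after dosing, loss of signal vs DMSO. Single-point duplicate screen at 25 uM, actives retested in concentration series.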

[11] = biological target: rat Monoamine Oxidase, MAO-B, Peripheral (MAOBP), Maob (gene 25750) (UniProt P19643); experiment: NVS_ENZ_rMAOBP: NovaScreen (NVS) Enzymatic Assay for rat Monoamine Oxidase, MAO-B, Peripheral (MAOBP) (AID 2283242)
[12] = biological target: mouse Cholecystokinin, CCK2 Receptor (CCKB), Cckbr (gene 12426) (UniProt P56481); experiment: NVS_GPCR_mCKKBCentral: NovaScreen (NVS) G Protein-Coupled Receptor Assay for mouse Cholecystokinin, CCK2 Receptor (CCKB) (AID 2283293)
Procedure, shortened: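 Radioligand displacement binding on mouse forebrain membranes, 2 h exposure, filter-based scintillation counting. Primary screen in duplicate at 25 uM; actives (e.g. ≥30% inhibition) retested in concentration-response up to 50 uM; loss of binding signal relative to DMSO.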

NCBI gene 24521 = experiment: NVS_IC_rKATPCh: NovaScreen (NVS) Ion Channel Assay for rat Potassium Channel, ATP-Sensitive (KATPCh) (AID 2283319)
Procedure, shortened: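 Rat cortical membranes; radioligand binding at ATP-sensitive K channel site, filter-based scintillation counting 2 h after dosing. Single-point duplicate screen at 25 uM, hits rerun in concentration-response up to 50 uM; loss of signal versus DMSO.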

[13] = biological target: rat Adenylate Cyclase, Forskolin Stimulated, Adcy5 (gene 64532) (UniProt Q04400); experiment: NVS_ENZ_rACFSKBinding: NovaScreen (NVS) Enzymatic Assay for rat Adenylate Cyclase, Forskolin Stimulated (AID 2283232)
Procedure, shortened: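 Rat forebrain membrane preparation, cell-free, read 1 h after dosing by filter-based scintillation counting. Primary screen in duplicate at 25 uM; actives (e.g. ≥30% inhibition) rerun in concentration-response up to 50 uM; fit versus DMSO.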

[14] = biological target: rat Monoamine Oxidase, MAO-B, Central (MAOBC), Maob (gene 25750) (UniProt P19643); experiment: NVS_ENZ_rMAOBC: NovaScreen (NVS) Enzymatic Assay for rat Monoamine Oxidase, MAO-B, Central (MAOBC) (AID 2283238)
Procedure, shortened: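 Rat brain tissue extract served as the cell-free MAO-B source; enzyme activity was read by scintillation counting 1.17 hours after compound addition. Loss of signal versus DMSO baseline was fitted; primary single-concentration screen at 25 uM, follow-up concentration-response up to 50 uM.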

[15] = biological target: Estrogen receptor (Homo sapiens) + Estrogen receptor beta (Homo sapiens) (UniProt P03372+Q92731); experiment: OT_ER_ERaERb_1440: Odyssey Thera (OT) 24-hour HEK293T Protein-Complementation Assay for Estrogen Receptor-alpha/-beta Homodimer (AID 2283356);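 further: heteromer of ER alpha and ER beta binding domains; hits raise reporter fluorescence and both agonists and antagonists give an increase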
Procedure, shortened: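 Readout: mean fluorescence intensity in nucleus (agonists) or nucleus plus cytoplasm (antagonists), read by laser scanning cytometer after 24 h compound exposure of HEK293T cells carrying ERα/ERβ LBD fragment-complementation constructs; DMSO baseline.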

[16] = TOX21_PR_LUC_Followup_Antagonist_viability: Viability Assessment in the Tox21 HEK293 Progesterone Receptor (PR) Antagonism Luciferase Follow-Up Assay (AID 2283940)
Procedure, shortened: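 HEK293-PR-A-luc cells kept in charcoal-stripped FBS medium were plated 5 h before compound addition, then exposed 16 h at 37C; viability read as cellular ATP by luciferase luminescence, loss of signal indicating cytotoxicity.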

[17] = test system: guinea pig Histamine Receptor (H2), gene 100729734; experiment: NVS_GPCR_gH2: NovaScreen (NVS) G Protein-Coupled Receptor Assay for guinea pig Histamine Receptor (H2) (AID 2283342)
Procedure, shortened: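 Radioligand displacement on guinea pig striatal membranes, 1 h after dosing, filter-based scintillation counting; loss of signal versus DMSO. Single-point screen at 25 uM in duplicate, then concentration-response up to 50 uM.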

[18] = test system: Thyroperoxidase (TPO), gene 445522; experiment: CCTE_Simmons_GUA_TPO: CCTE's Guaiacol Assay for Thyroperoxidase (TPO) Inhibition, Simmons Lab (AID 2283750)
Procedure, shortened: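 Porcine thyroid microsomes (25 ug) in 200mM potassium phosphate, preincubated 30 s at 37C with compound (8 concentrations, 5 nM–87.5 uM) and 35mM guaiacol; 1mM H2O2 starts reaction. Absorbance change at 450nm over first 80 s; loss of signal versus DMSO, three replicates.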

In the case of `O=P(OCC(Br)CBr)(OCC(Br)CBr)OCC(Br)CBr` (stereo not given), the AC50 [1] is reported as inconclusive: 12.9 µM and inconclusive: 92.8 nM and the AC50 [2] is reported as inconclusive: 43.5 µM.

For `CCCSC(=O)N(CCC)CCC`, the outcome [3] was “inactive” and the outcome [4] was “inactive”.

With `COP(=O)(NC(C)=O)SC` (stereo not given) the AC50 [5] was inconclusive: 4.96 µM, the AC50 (PPP2CA (gene 5515)) was inconclusive: 25 µM and the AC50 [6] was inconclusive: 6.14 µM.

In the case of `CCCCCCCCC(=O)NCc1ccc(O)c(OC)c1`, the AC50 [7] is reported as inconclusive: 0.901 µM.

With `CC(C)C1(C)N=C(c2ncccc2C(=O)O)NC1=O` (stereo not given) the AC50 [8] was inconclusive: 2.26 µM and the AC50 [9] was inconclusive: 25 µM.

With `CC(O)C#N` (stereo not given) the AC50 [10] was inconclusive: 25 µM.

For `Oc1c(Cl)cc(Cl)cc1Cl`, the AC50 [11] was inconclusive: 0.0508 µM, the outcome [12] was “inactive” and the AC50 (NCBI gene 24521) was inconclusive: 44.2 µM.

For `CC(C)(C)OOC(=O)c1ccccc1`, the AC50 [13] was inconclusive: 25 µM and the outcome [14] was “inactive”.

In the case of `Nc1cnn(-c2ccccc2)c(=O)c1Cl`, the outcome [15] is reported as “inactive”.

For `C[C@]12CC[C@H]3[C@@H](CC[C@@]45O[C@@H]4C(O)=C(C#N)C[C@]35C)[C@@H]1CC[C@@H]2O`, the outcome [16] was “inactive”.

For `Nc1ccc(Cc2ccc(N)cc2)cc1`, the AC50 [17] was inconclusive: 25 µM and the AC50 [18] was active: 0.352 µM.
